From publication PMC12431657, “Discovery and mechanistic insights of dibenzoylmethane as a broad spectrum inhibitor of coronavirus” (PLOS Pathogens, 2025)
Where two headings read alike, the source gives them in different places. Out of some 3,300 compounds screened, about 60 (2%) showed an effect of 50% or more. The list shows a part of the results. Square brackets hold non-standard residues; d marks the D form. Peptide text beside a SMILES is read from it. * marks the point of attachment. Sta = CC(C)C[C@H](N)[C@@H](O)CC(=O)O; Isovaleryl = CC(C)CC(=O)*

Tested on: HCoV-OC43
Parameters: species or system RD; HTS, protection from HCoV-OC43 induced cell death, luminescent cell viability (CellCounting-Lite 2.0), inhibition rate
Settings: 24 h post infection, 1 h compound pre-incubation, 10 µM, inhibitor

Structure (SMILES)	OC43 Inhibition rate	OC43 Inhibition rate (OC43 Inhibition rate, 24 h)
COc1ccc(CCc2cc(OC)c(OC)c(OC)c2)cc1O [Erianin]	-1.4%	–
CN1CCc2cc3c(cc2C(=O)Cc2cc4c(cc2C1)OCO4)OCO3 [Protopine]	-5.7%	–
O=c1ccn([C@@H]2O[C@H](COP(=O)(O)O)[C@@H](O)[C@H]2O)c(=O)[nH]1 [Uridine 5'-monophosphate]	–	0.6%
O=c1c(O[C@@H]2O[C@H](CO[C@@H]3O[C@H](CO)[C@@H](O)[C@H](O)[C@H]3O)[C@@H](O)[C@H](O)[C@H]2O)c(-c2ccc(O)c(O)c2)oc2cc(O)cc(O)c12 [Quercetin 3-gentiobioside]	3.9%	–
OC[C@H]1O[C@@H](O[C@@H]2OC=C[C@H]3[C@H](O)[C@@H]4O[C@]4(CO)[C@@H]23)[C@H](O)[C@@H](O)[C@@H]1O [Catalpol]	-0.6%	–
CCC(O)CC [3-Pentanol]	0%	–
C[C@H](CC(=O)O)[C@H]1CC[C@H]2[C@@H]3[C@H](O)C[C@@H]4C[C@H](O)CC[C@]4(C)[C@H]3C[C@H](O)[C@]12C [Norcholic acid]	0.2%	–
C/C=C/c1ccc(O)c(OC)c1 [Isoeugenol]	3.5%	–
COc1cc(C(C)=O)cc(OC)c1O [Acetosyringone]	-1.8%	–
OC[C@H]1O[C@H](O[C@H]2O[C@H](CO)[C@@H](O)[C@H](O)[C@H]2O)[C@H](O)[C@@H](O)[C@@H]1O [D-(+)-Trehalose dihydrate]	–	-0.7%
CC(C)=CCC/C(C)=C\CO [Nerol]	0.6%	–
COc1cc(-c2oc3cc(O[C@@H]4O[C@H](CO)[C@@H](O)[C@H](O)[C@H]4O)cc(O)c3c(=O)c2O)ccc1O [Brassicin]	0.2%	–
Cc1ncccc1O [3-Hydroxy-2-methylpyridine]	1.2%	–
C=C(CC[C@@H](C(=O)O)[C@H]1[C@H](O)C[C@@]2(C)C3=C(CC[C@]12C)[C@@]1(C)CC[C@H](OC(C)=O)C(C)(C)[C@@H]1CC3)C(C)C [Pachymic acid]	-1.9%	–
CC1=CC(=O)c2ccccc2C1=O [Menadione]	-0.4%	–
CCC(C)C(=O)C(=O)O (stereo not shown) [3-Methyl-2-oxovaleric acid]	-0.2%	–
C[C@@H]1O[C@@H](O[C@H]2[C@H](O[C@H]3CC[C@@]4(C)[C@@H](CC[C@]5(C)[C@@H]4CC=C4[C@@H]6CC(C)(C)CC[C@]6(C(=O)O)CC[C@]45C)[C@]3(C)CO)OC[C@H](O[C@@H]3O[C@H](CO)[C@@H](O)[C@H](O)[C@H]3O)[C@@H]2O)[C@H](O)[C@H](O)[C@H]1O [Pulsatilla saponin D]	13.9%	–
O=C(O)Cc1ccc(O)c(O)c1 [3,4-Dihydroxybenzeneacetic acid]	-1.1%	–
CC(=O)N[C@H](C(=O)O)C(C)C [Acetylvaline]	-0.2%	–
CC(C)=CCC[C@@](C)(O)[C@H]1CC[C@]2(C)[C@@H]1[C@H](O)C[C@@H]1[C@@]3(C)CC[C@H](O[C@@H]4O[C@H](CO)[C@@H](O)[C@H](O)[C@H]4O[C@@H]4O[C@H](CO)[C@@H](O)[C@H](O)[C@H]4O)C(C)(C)[C@@H]3CC[C@]12C [(20R)-Ginsenoside Rg3]	2.9%	–
O[C@]12CO[C@H](c3ccc4c(c3)OCO4)[C@H]1CO[C@@H]2c1ccc2c(c1)OCO2 [Paulownin]	-0.3%	–

Structure (SMILES)	OC43 Inhibition rate	OC43 Inhibition rate (OC43 Inhibition rate, 24 h)
O=c1c(O[C@@H]2O[C@@H](CO)[C@H](O)[C@H]2O)c(-c2ccc(O)c(O)c2)oc2cc(O)cc(O)c12 [Avicularin]	9.4%	–
C=C1CCC[C@]2(C)C[C@]3(O)OC(=O)C(C)=C3C[C@@H]12 [Atractylenolide III]	0%	–
C=C1[C@H]2C[C@H]2[C@]2(C)Cc3occ(C)c3[C@H](O)[C@@H]12 [Lindenenol]	1.4%	–
O=C(O)/C=C/C=C/c1ccccc1 [Cinnamylideneacetic acid]	-0.1%	–
CO[C@@H]1[C@H](O)CC[C@]2(CO2)[C@H]1[C@@]1(C)O[C@@H]1CC=C(C)C [Fumagillol]	6.9%	–
O=C(CO)[C@@H](O)[C@H](O)[C@@H](O)CO [(3S,4R,5S)-1,3,4,5,6-Pentahydroxyhexan-2-one]	7.4%	–
O=C(/C=C/c1ccc(O)c(O)c1)O[C@H]1[C@H](O)C[C@](O)(C(=O)O)C[C@H]1O [Cryptochlorogenic acid]	-0.8%	–
N[C@@H](CCC(=O)NCC(=O)O)C(=O)O [γ-Glu-Gly]	-0.3%	–
CCCCCCCCCCCCCCCC(=O)OC[C@H](CO)OC(=O)CCCCCCCCCCCCCCC [1,2-Dipalmitoyl-sn-glycerol]	-0.2%	–
CC(C)CC(=O)N[C@H](C(=O)N[C@H](C(=O)N[C@@H](CC(C)C)[C@@H](O)CC(=O)N[C@@H](C)C(=O)N[C@@H](CC(C)C)[C@@H](O)CC(=O)O)C(C)C)C(C)C [Pepstatin] (Isovaleryl-VV[Sta]A[Sta]-OH)	–	1.2%
CC[C@H](C)[C@@H]1NC(=O)[C@@H]2CCCN2C(=O)[C@@H]2CCCN2C(=O)[C@@H]2CCCN2C(=O)[C@H](CC(C)C)NC(=O)CNC(=O)CNC(=O)[C@H](Cc2ccccc2)NC1=O [Heterophyllin B] (cyclo(FGGLPPPI))	1.8%	–
Nc1ncnc2c1ncn2[C@@H]1O[C@H](CO)C[C@H]1O [Cordycepin]	-0.3%	–
CC(=O)N[C@H]1[C@H]([C@H](O)[C@H](O)CO)OC(O)(C(=O)O)C[C@@H]1O (stereo partly shown) [N-Acetylneuraminic acid]	2.9%	–
OCc1cccc(O)c1 [KSD 2405]	0.1%	–
CC(C)[C@H](NC(=O)[C@H](CC(=O)O)NC(=O)[C@H](CCCCN)NC(=O)[C@@H](N)CCCN=C(N)N)C(=O)N[C@@H](Cc1ccc(O)cc1)C(=O)O [Thymopentin (acetate)] (H-RKDVY-OH)	–	0%
COc1cc2c(c(OC)c1OC)-c1c(cc3c(c1O)OCO3)C[C@H](C)[C@@H](C)C2 [Gomisin M2]	3.4%	–
OCc1ccc(O)cc1 [4-Hydroxybenzyl alcohol]	-0.1%	–
COc1c2ccoc2c(O)c2oc(=O)ccc12 [8-Hydroxybergapten]	5.8%	–
CNc1ccccc1C(=O)OC [Methyl N-methylanthranilate]	-0.6%	–
CC[C@H](C)C(=O)O[C@H]1C[C@H](O)C=C2C=C[C@H](C)[C@H](CC[C@@H](O)C[C@@H](O)CC(=O)O)[C@H]21 [Pravastatin (sodium)]	3.1%	–
COc1ccc2ccc(=O)oc2c1C[C@@H]1OC1(C)C [Meranzin]	-0.8%	–

Structure (SMILES)	OC43 Inhibition rate	OC43 Inhibition rate (OC43 Inhibition rate, 24 h)
Cc1c(C)c2c(c(C)c1O)CC[C@@](C)(CCC[C@H](C)CCC[C@H](C)CCCC(C)C)O2 (racemic) [DL-alpha-Tocopherol]	1.2%	–
CC(C)[C@H](N)C(=O)NCCC(=O)O [H-Val-Ala-OH]	0.2%	–
CCCCCCCC(=O)OC [Methyl octanoate]	0.1%	–
CCCCC/C=C\C/C=C\CCCCCCCC(=O)OCC(O)CO (stereo not shown) [1-Linoleoyl Glycerol]	-0.1%	–
CCC(O)C(=O)O (stereo not shown) [Sodium 2-hydroxybutanoate]	-6%	–
C[C@H]1O[C@H](O[C@@H]2[C@@H](O)[C@H](OCCc3ccc(O)c(O)c3)O[C@H](CO[C@H]3OCC(O)(CO)[C@@H]3O)[C@H]2OC(=O)/C=C/c2ccc(O)c(O)c2)[C@@H](O)[C@@H](O)[C@@H]1O (stereo partly shown) [Forsythoside B]	-0.3%	–
Cc1cc(=O)c2c(O)cc(O)cc2o1 [Noreugenin]	0.1%	–
CC(C)=CC/C=C(\C)[C@H]1CC[C@]2(C)[C@@H]1[C@H](O)C[C@@H]1[C@@]3(C)C[C@@H](O)[C@H](O[C@@H]4O[C@H](CO)[C@@H](O)[C@H](O)[C@H]4O[C@@H]4O[C@H](CO)[C@@H](O)[C@H](O)[C@H]4O)C(C)(C)[C@@H]3CC[C@]12C [Damulin A]	-0.5%	–
CC(=O)NCC(=O)O [N-Acetylglycine]	-2%	–
C=C(CCC=C(C)C)[C@H]1CC[C@]2(C)[C@@H]1[C@H](O)C[C@@H]1[C@@]3(C)CC[C@H](O[C@@H]4O[C@H](CO)[C@@H](O)[C@H](O)[C@H]4O[C@@H]4O[C@H](CO)[C@@H](O)[C@H](O)[C@H]4O)C(C)(C)[C@@H]3CC[C@]12C [Ginsenoside Rk1]	16.3%	–
CCC(O)CC(=O)O (stereo not shown) [3-Hydroxyvaleric acid]	-1.3%	–
Cc1cc(O)cc(O)c1C(=O)O [Orsellinic acid]	0.5%	–
COc1cc(-c2coc3c([C@@H]4O[C@H](CO)[C@@H](O)[C@H](O)[C@H]4O)c(O)ccc3c2=O)ccc1O [3'-Methoxypuerarin]	0%	–
C=C[C@]1(C)C[C@@H](OC(=O)CO)[C@]2(C)[C@H](C)CC[C@]3(CCC(=O)[C@H]32)[C@@H](C)[C@@H]1O [Pleuromutilin]	40.2%	–
O=C(/C=C/c1ccc(O)cc1)c1c(O)cc(O)cc1O [Naringenin chalcone]	0.1%	–
CC(=O)c1ccc(C)cc1C [2',4'-Dimethylacetophenone]	-0.9%	–
C=CCc1ccc(OC)cc1 [Estragole]	-2.2%	–
Nc1[nH]c(=O)nc2c1ncn2[C@@H]1O[C@H](CO)[C@@H](O)[C@H]1O [Crotonoside]	-0.2%	–
O=c1oc2ccccc2cc1O [3-Hydroxycoumarin]	0.2%	–

A stretch taken from the entries so far, for reference:
Structure (SMILES)	OC43 Inhibition rate	OC43 Inhibition rate (OC43 Inhibition rate, 24 h)
CCCCCCCC(=O)OC [Methyl octanoate]	0.1%	–
CCCCC/C=C\C/C=C\CCCCCCCC(=O)OCC(O)CO (stereo not shown) [1-Linoleoyl Glycerol]	-0.1%	–
CCC(O)C(=O)O (stereo not shown) [Sodium 2-hydroxybutanoate]	-6%	–
C[C@H]1O[C@H](O[C@@H]2[C@@H](O)[C@H](OCCc3ccc(O)c(O)c3)O[C@H](CO[C@H]3OCC(O)(CO)[C@@H]3O)[C@H]2OC(=O)/C=C/c2ccc(O)c(O)c2)[C@@H](O)[C@@H](O)[C@@H]1O (stereo partly shown) [Forsythoside B]	-0.3%	–
